Results are given in words; binding and its absence hold for the method and conditions named. In cells and extracts the contact can be indirect. Some results given as binding are weak or reduced against the parent protein; the word gives no strength. For some assays here: Tags and fused reporters may be left off the sequences shown. One block for each molecule: values may come before it.
Experiments:
CBP-SBP-Intu (mouse) = target: T1, CBP-SBP-Intu (mouse) (UniProt Q059U7); test: pull-down; STV-pulldown from lysate of 293FT cells transfected with CBP-SBP-Intu, cells untreated or treated with IFN-γ, azide or cisplatin; immunoblot
T1 sequence: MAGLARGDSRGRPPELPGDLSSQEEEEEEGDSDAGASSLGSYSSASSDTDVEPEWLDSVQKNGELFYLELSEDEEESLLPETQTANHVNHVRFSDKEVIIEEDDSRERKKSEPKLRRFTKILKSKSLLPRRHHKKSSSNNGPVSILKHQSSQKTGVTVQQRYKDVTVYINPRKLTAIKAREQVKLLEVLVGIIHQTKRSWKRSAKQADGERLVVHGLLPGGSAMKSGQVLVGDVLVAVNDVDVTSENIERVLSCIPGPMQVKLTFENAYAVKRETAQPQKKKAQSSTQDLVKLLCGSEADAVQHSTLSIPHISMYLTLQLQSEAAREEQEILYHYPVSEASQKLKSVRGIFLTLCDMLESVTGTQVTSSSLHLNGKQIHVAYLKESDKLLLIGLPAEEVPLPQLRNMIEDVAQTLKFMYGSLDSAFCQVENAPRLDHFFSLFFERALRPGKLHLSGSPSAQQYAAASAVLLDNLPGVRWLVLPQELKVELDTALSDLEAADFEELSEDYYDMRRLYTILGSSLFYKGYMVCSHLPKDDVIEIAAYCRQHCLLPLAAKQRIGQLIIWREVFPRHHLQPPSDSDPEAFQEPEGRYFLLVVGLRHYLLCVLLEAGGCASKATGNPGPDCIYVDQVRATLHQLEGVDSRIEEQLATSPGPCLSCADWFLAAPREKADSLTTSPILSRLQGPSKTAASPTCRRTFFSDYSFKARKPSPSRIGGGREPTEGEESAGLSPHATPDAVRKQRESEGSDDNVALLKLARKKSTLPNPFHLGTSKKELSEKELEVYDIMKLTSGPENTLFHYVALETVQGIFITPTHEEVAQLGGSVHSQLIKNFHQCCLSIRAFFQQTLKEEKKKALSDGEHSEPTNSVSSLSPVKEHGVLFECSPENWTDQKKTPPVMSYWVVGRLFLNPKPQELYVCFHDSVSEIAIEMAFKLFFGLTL

By UniProt entry, the sequences of proteins in these tests, tags left out.
UniProt P42224: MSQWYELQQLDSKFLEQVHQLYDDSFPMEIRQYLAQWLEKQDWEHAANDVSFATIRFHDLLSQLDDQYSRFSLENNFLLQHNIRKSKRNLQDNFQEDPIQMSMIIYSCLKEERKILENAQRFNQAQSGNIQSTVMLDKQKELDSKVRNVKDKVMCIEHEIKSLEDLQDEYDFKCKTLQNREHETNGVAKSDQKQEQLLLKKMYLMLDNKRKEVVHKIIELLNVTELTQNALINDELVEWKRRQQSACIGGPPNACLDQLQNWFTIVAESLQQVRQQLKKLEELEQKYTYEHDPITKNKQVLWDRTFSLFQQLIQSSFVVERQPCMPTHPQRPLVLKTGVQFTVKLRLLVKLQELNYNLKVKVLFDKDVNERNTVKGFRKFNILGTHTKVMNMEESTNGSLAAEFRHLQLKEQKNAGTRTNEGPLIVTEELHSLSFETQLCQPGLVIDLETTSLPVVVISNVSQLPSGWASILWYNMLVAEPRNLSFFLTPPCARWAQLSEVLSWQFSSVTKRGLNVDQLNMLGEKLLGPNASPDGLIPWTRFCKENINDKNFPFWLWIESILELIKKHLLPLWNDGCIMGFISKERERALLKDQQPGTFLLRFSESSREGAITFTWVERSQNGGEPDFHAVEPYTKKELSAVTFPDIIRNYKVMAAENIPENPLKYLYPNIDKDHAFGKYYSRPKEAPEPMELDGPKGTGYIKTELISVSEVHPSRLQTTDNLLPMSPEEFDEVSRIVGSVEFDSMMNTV

[1] = target: STAT1 (human (endogenous in 293FT)) (UniProt P42224); test: co-IP; lysate of 293FT cells transfected with Intu-mycDDK; immunoprecipitation with anti-STAT1 antibody or non-immune IgG and agarose beads, 2 h at 4 °C; blot for STAT1 and myc

binding (CBP-SBP-Intu (mouse)): binds
Molecule: STAT1 (from UniProt P42224 1-750)

binding [1]: binds
B1: Intu-mycDDK (protein, UniProt Q059U7 1-942)
chain: T1 sequence
